The values are deposited in ChEMBL (CHEMBL3988442, “University of Dundee, Small-Polar-MMV Screening Library” (2021)).

Protein sequences, listed by entry. Tags and fused reporters are not part of them.
UniProt E9BF75, entry or part of it: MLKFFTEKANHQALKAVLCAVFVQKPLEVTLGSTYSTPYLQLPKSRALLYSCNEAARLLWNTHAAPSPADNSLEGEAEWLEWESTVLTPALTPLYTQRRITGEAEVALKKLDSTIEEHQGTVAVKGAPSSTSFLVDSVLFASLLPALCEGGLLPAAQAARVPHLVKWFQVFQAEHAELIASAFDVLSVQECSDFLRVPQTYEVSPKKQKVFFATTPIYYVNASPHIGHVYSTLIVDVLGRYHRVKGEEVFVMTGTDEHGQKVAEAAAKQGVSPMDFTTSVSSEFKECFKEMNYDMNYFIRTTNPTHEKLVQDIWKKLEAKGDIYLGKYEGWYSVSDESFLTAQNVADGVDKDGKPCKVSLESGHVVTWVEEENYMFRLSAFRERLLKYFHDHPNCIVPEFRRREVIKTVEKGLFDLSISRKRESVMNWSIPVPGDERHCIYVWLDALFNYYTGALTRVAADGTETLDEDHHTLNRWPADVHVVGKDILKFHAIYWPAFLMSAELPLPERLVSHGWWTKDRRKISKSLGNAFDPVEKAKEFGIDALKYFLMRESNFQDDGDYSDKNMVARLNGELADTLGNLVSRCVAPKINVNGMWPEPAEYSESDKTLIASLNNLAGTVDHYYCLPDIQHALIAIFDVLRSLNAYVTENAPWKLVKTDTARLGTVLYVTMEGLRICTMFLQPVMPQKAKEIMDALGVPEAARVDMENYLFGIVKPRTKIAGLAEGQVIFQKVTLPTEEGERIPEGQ

A: 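Primary screen of methionyl-tRNA synthetase; the read-out is not stated. Target: Methionyl-tRNA synthetase (putative), Leishmania donovani (UniProt E9BF75). The test concentration is not given. Values are per cent inhibition. Size under these conditions: about 68,000 compounds, about 24 of them at 50% or above in at least one test.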
B: 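Assay on Mycobacterium tuberculosis, filed only as a heat shock assay from Cornell; the read-out is not stated. The concentration is filed as 10 mM, unlikely as a test dose, so the dose is not known. Direction is inferred from retests: higher values go with stronger inhibition. About 69,000 compounds were tested under these conditions; 1.4% (about 930) showed 50% or more at least once.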

Results are percentages, as filed. The record does not define 0% and 100%; most values in the screen are far below 50% and negative numbers occur (in some assays of this library far below -100). The compounds are a random part of those screened. A dash means the value is not listed here; it may have been measured.

| # | structure | A | B |
|---|---|---|---|
| 1 | `Cn1ncc2c(=O)[nH]c(N3CCN(C(=O)c4ccsc4)CC3)nc21` | -0.6536 | 5.062 |
| 2 | `Cc1nc(CN2CCOC(Cn3cccn3)C2)no1` (stereo not given) | 13.25 | -15.93 |
| 3 | `Cn1cc(C2CC(=O)NC23CCN(Cc2cccc(F)c2)CC3)cn1` (stereo not given) | 9.041 | - |
| 4 | `Cc1[nH]c(=O)c(C#N)cc1C(=O)N1C[C@@H](CN2CCCC2)C[C@H](CO)C1` | 5.926 | -13.36 |
| 5 | `O=C(O)C(F)(F)F.[H][C@@]12CN(C(=O)c3cccnc3)C[C@]1([H])CN(c1cc(OC)ncn1)C2` | - | -13.62 |
| 6 | `CCOC(=O)N1CCN(C(=O)c2ccc3ccn(C)c3c2)CC1` | 5.926 | 7.409 |
| 7 | `COCc1ncn2c1CN(S(=O)(=O)c1cccc(F)c1)CC2` | 11.29 | -25.7 |
| 8 | `CCc1noc(C)c1C(=O)N1CCCN(Cc2cscn2)CC1` | 18.23 | 34.57 |
| 9 | `CC(C)NC(=O)CN(C)C1CCN(c2cnc3ccccc3n2)CC1` | 9.375 | -1.999 |
| 10 | `CC(C)[C@H]1COC(=O)N1Cc1nnc(-c2ccccc2)o1` | 13.4 | 13.81 |
| 11 | `Oc1cc(CNCCN2CCCCC2)nc2c(F)cccc12` | 7.5 | -1.573 |
| 12 | `O=C(Cc1csc(-c2ccccc2Cl)n1)NCc1cccc(C(=O)O)c1` | 15.97 | -2.85 |
| 13 | `CC(=O)N1N=C(Cc2ccccc2)OC1C(=O)NCC(=O)OC(C)(C)C` (stereo not given) | 14.17 | 11.49 |
| 14 | `NC(=O)CN(C(=O)c1cccc(C(F)(F)F)c1)C1CCCC1` | 22.07 | -11.98 |
| 15 | `[H][C@@]12CCN(C[C@@H]1CN1CCCC1)[C@@H](CNC(=O)c1ccco1)C2` | - | -16.36 |
| 16 | `CN1CC(=O)N(c2ccccc2)CC12CCN(C(=O)c1cccs1)C2.O=C(O)C(F)(F)F` (stereo not given) | - | -3.603 |
| 17 | `COCCN1CCC(NC(=O)NCC2(c3cccc(F)c3)CC2)C1` (stereo not given) | 11.71 | -14.85 |
| 18 | `CCCn1c(C)c(CC(=O)NC(C)CO)c2c1CC(C)(C)CC2=O` (stereo not given) | 11.72 | 2.983 |
| 19 | `CCc1cc(=O)n(CC(=O)N2CCCC2)c(-c2cccc(F)c2)n1` | 12.75 | 4.315 |
| 20 | `[H][C@]12CN(Cc3ccco3)C[C@@]1([H])OCCN(C(=O)c1cccn1C)C2` | - | 11.2 |
| 21 | `[H][C@@]12CCN(c3ncccn3)[C@]1([H])CC[C@H](C(=O)N1CCCCO1)O2` | - | 30.63 |
| 22 | `COCc1cc(N2CCOC(c3ccc(Cl)c(Cl)c3)C2)ncn1` (stereo not given) | 27.44 | 10.3 |
| 23 | `COCCN1CCOCC2(CCCN(Cc3cccc(F)c3)C2)C1` (stereo not given) | 5.449 | - |
| 24 | `COCc1cncc2c1CCN(C(=O)c1cccc(C#N)c1)C2.O=C(O)C(F)(F)F` | - | 18.35 |
| 25 | `Cc1nnc2n1CCN(C(=O)COCCOc1ccccc1)C2` | 15.97 | 2.388 |
| 26 | `[H][C@@]12CCN(C(=O)c3ccccc3)[C@]1([H])C(=O)N(c1ccc(F)cc1)C(=O)N2` | - | -9.792 |
| 27 | `Cc1ncsc1C(=O)N(C)Cc1ccncc1` | 5.102 | 7.123 |
| 28 | `CN(C)[C@@H]1CCN(c2ncccn2)[C@H]1Cc1ccccc1` | 12.6 | -18.7 |
| 29 | `O=S1(=O)CCC(n2nc(Cc3cccs3)nc2-c2cnccn2)C1` (stereo not given) | 16.05 | 5.07 |
| 30 | `O=C(Nc1cnn(Cc2ccc(Cl)cc2)c1)N1CCCC1CO` (stereo not given) | 6.789 | 6.822 |
| 31 | `c1cc2c(cc1Cn1cc(C3CCCNC3)nn1)CCCO2` (stereo not given) | 12.18 | -11.62 |
| 32 | `C1CC(CN2CCOCC3(CCN(C4CCOCC4)C3)C2)CCO1` (stereo not given) | 11.59 | -5.557 |
| 33 | `COc1cc2[nH]c(C(=O)O)cc2c(OC)c1C` | 9.162 | -12.35 |
| 34 | `CC(=O)N1CCC(n2nccc2-c2cnc(NCCO)nc2)CC1` | 6.068 | -12.08 |
| 35 | `CN(C)CCO[C@H]1C[C@@H](O)C12CCN(c1cnccn1)CC2` | 9.278 | 14.06 |
| 36 | `COCc1ccccc1CNc1cc(N2CCCC2CO)ncn1` (stereo not given) | 14.17 | -0.2186 |
| 37 | `Cn1cc(S(=O)(=O)N2CCN(S(=O)(=O)c3ccc(Br)s3)CC2)cn1` | 15.32 | 13.53 |
| 38 | `CCCc1ccc(N2CCN(Cc3nc4ccccc4n3C)CC2)cc1` | 5.789 | 103 |
| 39 | `COc1ccc(CC2CN(C(=O)c3coc(C)n3)CCO2)cc1` (stereo not given) | 8.924 | -3.409 |
| 40 | `Cc1cc2n(n1)CC(CNC1CCN(C(=O)C3CC3)CC1)CN2` (stereo not given) | 7.117 | 1.236 |
| 41 | `Cc1noc(C)c1CN1CCO[C@H]2CN(Cc3ccc(F)cc3)C[C@H]21` | 9.375 | - |
| 42 | `Cc1cnc(C(NC(=O)NCc2nc(C3CC3)no2)C2CC2)s1` (stereo not given) | 10.89 | -18.43 |
| 43 | `COCCN1C(=O)CCC12CCN(c1ncc(F)cn1)CC2` | 14.18 | - |
| 44 | `CN(CC(O)C(F)(F)F)C(=O)Nc1cccc(N2CCCC2)c1` (stereo not given) | 9.218 | 9.264 |
| 45 | `COCCN1CCC(c2cncc(N(C)C)n2)CC1` | 4.167 | -19.17 |
| 46 | `CC(C)c1cc(NC(=O)CN2CCc3ccccc3C2)on1` | 12.55 | -3.37 |
| 47 | `COc1ccc(C(=O)N2CCC(Oc3ccc(C)cc3)(C(=O)O)CC2)o1` | 14.97 | -18.93 |
| 48 | `COCCN1Cc2ccnn2CC(COCc2cccnc2)C1` (stereo not given) | -1.031 | -25.76 |
| 49 | `Cc1ccc(C(=O)NCC(O)c2ccc(F)c(F)c2)c(=O)[nH]1` (stereo not given) | 14.12 | -20.36 |
| 50 | `Cc1cccc(CN2CC3(CCN(C(N)=O)CC3)OCC2=O)n1` | 3.046 | -21.66 |
| 51 | `CC(=O)Nc1nc(C(=O)NC(C)c2ccc3c(c2)OCCO3)cs1` (stereo not given) | 11.11 | -15.67 |
| 52 | `CCc1noc(C2CCCCN2C(=O)c2cc(C)oc2C)n1` (stereo not given) | -15.33 | 6.302 |
| 53 | `Cc1csc([C@@H]2C[C@@H]3CCN(C(=O)c4ccnnc4)C[C@H]3O2)n1` | 18.63 | - |
| 54 | `COc1ccc(-c2ccnc3c2C(=O)CCC3)cc1` | 9.441 | -9.115 |
| 55 | `CCOc1ncccc1NC(=O)NC1CCN(c2ncccn2)CC1` | 26.78 | -30.73 |
| 56 | `CCOC(=O)N1CCN(C(=O)Cc2c(C)nc(C)[nH]c2=O)CC1` | 18.75 | -3.517 |
| 57 | `[H][C@]12CCC[C@@H](OCc3cccnc3)[C@]1([H])CN(C(=O)c1ccnnc1)C2` | - | 2.309 |
| 58 | `Cc1noc(C)c1CN(C)Cc1csc(-c2ncccn2)n1` | 10.6 | -4.95 |
| 59 | `NC(=O)c1ccc(NC(=O)Cn2cc(I)cn2)cc1` | 8.746 | -0.8596 |
| 60 | `O=C(c1cc(-n2cccn2)ccc1Cl)N1CCC(N2CCCC2=O)CC1` | 16.45 | -7.165 |
| 61 | `CC(C)C(=O)Nc1ccc(C(O)Cn2nc(-c3cccs3)oc2=O)cc1` (stereo not given) | -9.019 | -5.173 |
| 62 | `CN(CC(=O)NC(Cc1ccsc1)c1cccnc1)Cc1cccnc1` (stereo not given) | 14.15 | - |
| 63 | `COC(=O)c1oc(CNC(C)(C)CO)cc1C` | 10.29 | -1.164 |
| 64 | `CC(C)NC(=O)CCNC(=O)c1cnc(Cc2ccc(F)cc2)s1` | 9.549 | -23.09 |

4 of the entries, repeated:

{"structure": "COCCN1CCC(NC(=O)NCC2(c3cccc(F)c3)CC2)C1", "stereo": "stereo not given", "A": 11.71, "B": -14.85}
{"structure": "O=C(Nc1cnn(Cc2ccc(Cl)cc2)c1)N1CCCC1CO", "stereo": "stereo not given", "A": 6.789, "B": 6.822}
{"structure": "Cc1nc(CN2CCOC(Cn3cccn3)C2)no1", "stereo": "stereo not given", "A": 13.25, "B": -15.93}
{"structure": "Cc1noc(C)c1CN(C)Cc1csc(-c2ncccn2)n1", "A": 10.6, "B": -4.95}